Experimental data published in PubChem BioAssay AID1296 (Columbia University Molecular Screening Center, 2008).
Among all 130,000 compounds or so, about 1,000 (0.77%) were called active. The shares of active, inactive and inconclusive entries below differ from those in the screen.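 How the source made its calls: active means activation at 2 µM above a set limit, confirmed on inspection of the cell images; inconclusive means above the set limit but not confirmed on image inspection; inactive means the rest.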

assay: activators of insulin promoter-driven GFP, primary screen, imaging, TRM-6 cells (human fetal islet line), eGFP reporter, cell count (AID 1296;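 further: share of cells whose green reporter signal exceeds an intensity cutoff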); details: at 2 µM, hits give high values, plate-scaled: unstimulated 0, stimulated control 100
In short: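 test system = TRM-6 insulin promoter–eGFP reporter cells | benchmarks = stimulated versus unstimulated wells as plate controls | read-out basis = percent cells above green-intensity threshold, converted to percent activation versus plate controls | detection = fixed-cell fluorescence microscopy, eGFP plus Hoechst | incubation = tamoxifen pre-incubation 15 h overnight, then compound exposure 48 h at 37 °C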

Compound	activation
Cc1ccc(S(=O)(=O)N(CC(=O)N2CCc3ccccc3C2)c2ccc(Cl)c(Cl)c2)cc1	inconclusive: 230%
CSc1ccc(/C=N/NC(=O)CNc2ccc3ccccc3c2)cc1	active: 369%
Cc1cccc(NC(=O)C2CC(=O)OC23CCCCC3)c1 (stereo unspecified)	inconclusive: 507%
COC(=O)c1ccccc1N1C(=O)C2C(C1=O)C1C=CC2C12CC2 (stereo unspecified)	active: 164%
CCn1c(CNc2ccccc2Cl)nnc1SCC(=O)NCc1ccccc1	inconclusive: 200%
O=C(Nc1ccc(Cl)c(Cl)c1)N1CCSCC1	inconclusive: 456%
COc1ccc(/C=N/NC(=O)c2ccc(Br)o2)cc1Cn1cc([N+](=O)[O-])cn1	inactive: 0%
CC(NC(=O)c1ccco1)c1cccc2ccccc12 (stereo unspecified)	inconclusive: 77.4%
CCOC(=O)/C(C(N)=NCCCO)=C(/O)c1ccccc1	inactive: -5.71%
CCn1c(SCC(=O)Nc2sc3c(c2C#N)CCCC3)nnc1-c1ccco1	inconclusive: 479%
COC(=O)[C@H]1C2CCC(C(=O)OC)(CC2)[C@H]1C(=O)OC	inconclusive: 230%
O=C(N/C(=N\O)c1ccccc1)Nc1ccc(Cl)cc1	inconclusive: 459%
COc1ccc(NC(=O)CC(C)c2ccccc2)c([N+](=O)[O-])c1 (stereo unspecified)	active: 443%
CCOC(=O)c1ccc(N2C(=O)CC(N3CCC(C(N)=O)(N4CCCCC4)CC3)C2=O)cc1 (stereo unspecified)	inconclusive: 420%
S=c1nc(Cc2ccc(Cl)cc2)[nH]c2ccccc12	inconclusive: 174%
O=C(NC(Cc1c[nH]c2ccccc12)C(=O)N/N=C/c1cccnc1)c1cccs1 (stereo unspecified)	inconclusive: 488%
CCC(C)(C(=O)NC1CCCC1)N(Cc1ccco1)C(=O)Cc1cccs1 (stereo unspecified)	inconclusive: 83.8%
CC(C)Oc1ccc(C(=O)NC2(C(F)(F)F)N=C3SCCN3C2=O)cc1 (stereo unspecified)	inactive: 8.33%
COc1ccc(-c2noc(CSc3ccc(C)cc3)n2)cc1	active: 521%
COC(=O)C1=C(C)Nc2nnnn2C1c1cccs1 (stereo unspecified)	inactive: 243%
CC(O)CNCCCOc1cccc(C(F)(F)F)c1 (stereo unspecified)	inconclusive: 471%
O=C(CSc1nnc(CNc2ccc(F)cc2)n1Cc1ccccc1)NCc1ccco1	inconclusive: 127%
Nc1ccc2oc(-c3cc(Br)ccc3Cl)nc2c1	inconclusive: 146%

Compound	activation
CCn1c(=O)cc(SCC(=O)N2CCN(C(=O)c3ccco3)CC2)c2ccccc21	inconclusive: 175%
CC(C)Cc1ccc(C(C)C(=O)O)cc1 (stereo unspecified)	inactive: 4.54%
Cc1cccc(C)c1NC(=O)COc1ccc2c(C)c(Cc3ccccc3)c(=O)oc2c1	inactive: -5.88%
C#CC(=O)N(c1ccc(OC)cc1OC)C(C(=O)NC1CCCC1)c1cccs1 (stereo unspecified)	inconclusive: 388% [cytotoxic]
CCC(=O)N1CCN=C1SCc1ccc(Cl)cc1	active: 493%
COc1ccc(NC(=O)COC(=O)CCCN2C(=O)c3ccccc3C2=O)cc1Cl	inactive: 7.69%
CCN(CCO)C1CC(=O)N(c2ccccc2C)C1=O (stereo unspecified)	inconclusive: 83.8%
CN1C(=S)N(c2cccnc2)C(=O)/C1=C\c1ccc(N(C)C)cc1	inconclusive: 567%
CC(C)(C)NC(=O)c1ccc(Sc2ccccc2)c([N+](=O)[O-])c1	inconclusive: 175%
CC(C)(C)NC(=O)C(c1ccc(F)cc1)N(Cc1ccccc1Cl)C(=O)c1ccn[nH]1 (stereo unspecified)	inconclusive: 150%
CC(NC(=O)OCc1ccccc1)C(=O)NCC(=O)NC(Cc1ccc(OC(C)(C)C)cc1)C(=O)OC(C)(C)C (stereo unspecified)	inactive: 6.9%
O=C(CN1CCOCC1)Nc1ccc(Oc2ccc(NC(=O)CN3CCOCC3)cc2)cc1	inconclusive: 638%
CCOC(=O)C1(Cc2cccc(Cl)c2)CCCN(CCO)C1 (stereo unspecified)	inconclusive: 185%
CCOC(=O)c1nn(-c2ccccc2F)c(C)c1C(C)=O	inactive: 2.44%
CN1C(=O)CC(N2CCC(C(N)=O)CC2)C1=O (stereo unspecified)	inconclusive: 407%
CN(C)/C=N/c1ncc(-c2ncc(C(F)(F)F)cc2Cl)cn1	inactive: -5.88%
O=S1(=O)CCN(C(CCO)c2cccc(C(F)(F)F)c2)CC1 (stereo unspecified)	inconclusive: 244%
N#CC(C#N)=C1C=C2C=C(N3CCCCCC3)CCC2CC1 (stereo unspecified)	active: 223%
CC(=O)c1ccc(NC(=O)CCCN2C(=O)/C(=C/C(C)=C/c3ccccc3)SC2=S)cc1	inactive: 0%
CCN(CC(=O)Nc1ccc2c(c1)CCC2)Cc1nc2ccccc2c(=O)[nH]1	inactive: 0%
COc1cc(NC(=O)Nc2cccc([N+](=O)[O-])c2)cc(OC)c1	inconclusive: 421% [cytotoxic]
c1cnc(Sc2ccc3nnnn3n2)nc1	inconclusive: 106%
Cn1c(SCc2ccc(Br)cc2)nc2c(c1=O)SCC2	inconclusive: 283%

Single values from the entries so far:
Entry for CCn1c(SCC(=O)Nc2sc3c(c2C#N)CCCC3)nnc1-c1ccco1 under activation: inconclusive: 479%
Entry for COc1ccc(/C=N/NC(=O)c2ccc(Br)o2)cc1Cn1cc([N+](=O)[O-])cn1 under activation: inactive: 0%
Entry for CC(C)Cc1ccc(C(C)C(=O)O)cc1 (stereo unspecified) under activation: inactive: 4.54%
